PubChem BioAssay AID1688 (National Center for Advancing Translational Sciences (NCATS), 2009)
The campaign covered roughly 220,000 compounds. About 2,400 (1.1%) were called active. The shares of active, inactive and inconclusive entries below differ from those in the screen. Calls follow the shape of the dose curve; as a rule, active = well fitted inhibition curve with a large enough effect; inconclusive = small, poorly fitted or top-dose-only effect, or effect the other way; inactive = no such curve, though single readings can be large or run the other way. A potency beside an inconclusive call is a rough fit, not a confirmed value.

Assay: qHTS Multiplex Assay to Identify Dual Action Probes in a Cell Model of Huntington: Aggregate Formation (GFP); also: nearly all actives have a fitted effect of over 60% in size
Conditions: PC12 HttQ103-GFP aggregates, Acumen cytometry, 40 h; activity change, negative = inhibition: at 46.1 µM (top of the series) unless noted
Method in brief: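 Huntingtin Q103 exon 1–GFP aggregates in induced PC12 cells (100 nM tebufenozide) were quantified by cytometry from lysates, with compounds dosed in titration.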
% is scaled to controls: 0 for no effect and ±100 for the full control effect; potency is read from the fitted curve at half-maximal effect.

Compound	Potency	activity change, negative = inhibition
O=C(CCc1ccccc1)N/N=C/c1cc(Br)ccc1O	inconclusive: 5.62 µM [inhibitor, single point]	
Cc1cc(Br)ccc1NC(=O)C1CCCO1 (stereo unspecified)	inconclusive: 1.26 µM [activator, single point]	
Cc1ccc(Nc2cc(C)nc3c(C)ccc([N+](=O)[O-])c23)cc1	inconclusive: 11.2 µM [inhibitor, single point]	
CCOC(=O)c1cn(CC)c2ccc(S(=O)(=O)N3CC(C)CC(C)C3)cc2c1=O (stereo unspecified)	inactive	
O=C(Nc1nnc(C2CC2)o1)c1ccc(S(=O)(=O)N2CCc3ccccc3C2)cc1	inconclusive: 31.6 µM [inhibitor, single point]	
Cc1ccc(Nc2c(-c3ccccn3)nc3cccc(C)n23)cc1	active: 7.94 µM	
CC(CNC(=O)C(=O)NC(C)CCc1ccccc1)Cc1ccccc1 (stereo unspecified)	inactive	
Cc1cc(C)c(C)c(C(=O)CSc2nnc(-c3ccc4[nH]c(C)c(C)c4c3)o2)c1C	inconclusive: 35.5 µM [inhibitor, single point]	
CC(=O)Nc1ccc(S(=O)(=O)N2CCN(CC(O)COc3ccc4ccccc4c3)CC2)cc1 (stereo unspecified)	inconclusive: 17.8 µM [inhibitor, single point]	
CC1(C)NC(=O)N(CCCCOc2ccc3ccccc3c2Cl)C1=O	inactive	
Cc1cc(N2CCN(C(=O)c3ccco3)CC2)c2ccccc2n1		inactive: -4.97% [at 9.22 µM]
COc1ccc(C2CC(=O)Oc3c(C(CCN4CCCC(C)C4)c4ccc(N(C)C)cc4)c(OC)cc(OC)c32)cc1 (stereo unspecified)		inactive: 25.6% [at 9.22 µM]
CCCOc1ccc(OCCOCCNCc2ccccc2)cc1	inactive	
CCC(C)(C)C(=O)Nc1cccc(Cl)c1C	inactive	
O=C(CC1(O)C(=O)N(Cc2ccccc2)c2ccccc21)c1ccc2c(c1)OCO2 (stereo unspecified)	inactive	
Cc1nc2ccccc2c(=O)n1/N=C/c1c(O)ccc2oc3c(c12)CCCC3	inconclusive: 3.16 µM [inhibitor, partial curve, poor fit]	
CCC1=C(OC(=O)N(CC)CC)N2C(=O)OC(=NCC3CC3)[C@]2(Cc2ccccc2)[C@H]2C1=CC[C@H]1C(=O)N(c3ccccc3)C(=O)[C@H]12	inconclusive: 2.82 µM [inhibitor, partial curve]	
O=C(NCc1ccccc1)c1ccc(-c2ccccc2C(F)(F)F)o1	inconclusive: 25.1 µM [inhibitor, single point]	
CC(=O)Cc1nsc(NC(=O)c2ccc(-c3cccc(Cl)c3)o2)n1	inconclusive: 28.2 µM [inhibitor, single point]	
CCOC(=O)C1CCCN(CC(O)COc2cccc(C)c2)C1 (stereo unspecified)	inactive	
CC(=O)Nc1cccc(/C(C)=N/NC(=O)c2c(-c3ccccc3Cl)noc2C)c1	inconclusive: 35.5 µM [inhibitor, single point]	
CCOC(=O)c1c(C)n(C)c2ccc(OCC(O)Cn3c(C)nc4ccccc43)cc12 (stereo unspecified)	inconclusive: 15.8 µM [inhibitor, single point]	
CC(NC(=O)C(=O)N/N=C\c1ccc([N+](=O)[O-])cc1)c1ccccc1 (stereo unspecified)		inactive: 1.39% [at 9.22 µM]
CCOC(=O)c1ccc(N2C(=O)C3C(C2=O)C(C(=O)c2ccc(Cl)cc2)N2CCCC32)cc1 (stereo unspecified)	inconclusive: 1.12 µM [activator, partial curve]	

Another view of part of the listing above.
Compound | Potency | activity change, negative = inhibition
CC1(C)NC(=O)N(CCCCOc2ccc3ccccc3c2Cl)C1=O | inactive | 
CC(NC(=O)C(=O)N/N=C\c1ccc([N+](=O)[O-])cc1)c1ccccc1 (stereo unspecified) |  | inactive: 1.39% [at 9.22 µM]

More structures follow.

Compound	Potency	activity change, negative = inhibition
Cc1noc(C)c1C(=O)N1CCN(CCc2ccccc2)CC1	inactive	
COc1ccc(NC(=S)N(CCCN2CCN(C)CC2)Cc2cccs2)cc1	inactive	
CC(=O)c1cc2c(C)cc(=O)oc2cc1O	inconclusive: 11.2 µM [inhibitor, single point]	
COc1ccc(-c2nc(NC(=O)CSc3nnc4ccccn34)ns2)cc1	inconclusive: 20 µM [inhibitor, partial curve]	
Cc1onc(-c2ccccc2)c1C(=O)Nc1ccc2c(C)cc(=O)oc2c1	inconclusive: 20 µM [activator, single point]	
FC(F)(F)c1cccc(NC(=S)NC(c2ccccc2)c2ccccc2)c1	inconclusive: 15.8 µM [inhibitor, single point]	
CCn1c(SCC(=O)NCc2ccco2)nnc1-c1c[nH]c2ccccc12	inconclusive: 14.1 µM [inhibitor, partial curve]	
Cn1cccc1Cc1nnc(SCC(=O)N2CCCc3ccccc32)n1-c1ccc(F)cc1	inconclusive: 35.5 µM [activator, single point]	
COc1cc(NC(=S)N2CCN(c3ccccn3)CC2)cc(OC)c1	active: 8.91 µM	
C[C@@H]1CC=C[C@H]2[C@H]1C(=O)N(Cc1ccccc1)[C@H]2c1ccc(F)c(Br)c1		inactive: -11.4% [at 9.22 µM]
CC(C)(C)C(=O)NC(=S)NCCc1ccccc1	inactive	
COc1cc(OC)cc(-c2nnc(SCC(=O)N(Cc3ccccc3)C(C)(C)C)o2)c1	inconclusive: 35.5 µM [inhibitor, single point]	
O=C(CN1CCN(c2nc(-c3ccc(F)cc3)cs2)CC1)Nc1ccc2c(c1)OCO2	inconclusive: 25.1 µM [inhibitor, single point]	
Cc1cc2nc3c(=O)[nH]c(=O)nc-3n(CC(O)C(O)C(O)CO)c2cc1C (stereo unspecified)	inconclusive: 22.4 µM [inhibitor, partial curve]	
N#C/C(=C/c1cn(-c2ccccc2)nc1-c1cccc(OCc2ccc(F)cc2)c1)C(=O)NCCCn1ccnc1	inconclusive: 35.5 µM [inhibitor, single point]	
O=C(Nc1ccc(F)cc1)C(c1ccccc1)N1CCN(S(=O)(=O)c2ccccc2)CC1 (stereo unspecified)	inconclusive: 14.1 µM [inhibitor, single point]	
CCCCC(=O)Nc1nc2ccc3nc(C)sc3c2s1	inconclusive: 11.2 µM [inhibitor, partial curve]	
COc1ccc(C2=CC(c3ccc(F)cc3)n3nnnc3N2)cc1 (stereo unspecified)	inactive	
CC(C)c1ccccc1NC(=O)COc1ccc2c(=O)c(Oc3ccc4ccccc4c3)coc2c1	inconclusive: 12.6 µM [activator, partial curve]	
CCOc1ccc(S(=O)(=O)Nc2cc(OC)ccc2OC)cc1	inconclusive: 1.41 µM [inhibitor, partial curve]	
COc1cccc(CN2CCNC(=O)C2CC(=O)N(C)CCc2ccccn2)c1OC (stereo unspecified)		inactive: -18.2% [at 9.22 µM]
O=C(NNS(=O)(=O)c1ccccc1)C(O)(c1ccccc1)c1ccccc1	inconclusive: 1.26 µM [inhibitor, single point]	
O=C(Cc1ccccc1)NC1CCN(S(=O)(=O)c2cccc(F)c2)CC1	inactive	
CCn1cc(/C=N/O)c(C)n1	inconclusive: 0.562 µM [inhibitor, full curve, poor fit]	

Compound	Potency	activity change, negative = inhibition
Cc1c(Cl)cccc1NC(=O)CSc1nnc(C)n1-c1ccccc1	inconclusive: 5.62 µM [activator, single point]	
CCOC(=O)/C(C#N)=C\c1ccc(OC)c(OC)c1	inconclusive: 6.31 µM [activator, single point]	
COC(=O)c1cc(C(=O)OCC(=O)NCc2ccc3c(c2)OCO3)cc([N+](=O)[O-])c1	inactive	
Cc1ccc(NC(=O)c2ccccc2NS(=O)(=O)c2ccc(Cl)s2)cc1	active: 3.16 µM	
O=C(Nc1ccc(F)cc1F)c1ccccc1-c1ccccc1	inactive	
O=C(c1ccccc1)c1cnc(Nc2ccccc2Cl)s1	inconclusive: 11.2 µM [inhibitor, partial curve]	
O=C(CSc1nnc(-c2ccccc2Cl)o1)Nc1ccc2c(c1)OCCO2	inactive	
O=C(N1CCCCC1)N1CCN(C(=O)N(c2ccccc2)c2ccccc2)CC1	inactive	
O=C(Cn1c(=O)sc2ccccc21)Nc1ccc(S(=O)(=O)N2CCCCC2)cc1	inconclusive: 5.62 µM [inhibitor, single point]	
COc1ccccc1C(=O)Nc1nnc(-c2ccc3c(c2)CCCC3)o1	active: 20 µM	
CC1(C)CC(=O)C2=C(C1)c1c(ccc3ccccc13)NC2c1ccc(Br)o1 (stereo unspecified)	inconclusive: 35.5 µM [inhibitor, single point]	
CCCCCCCCCn1c2c(c(=N)c3c1CCC3)CCC2	active: 1.26 µM	
COc1ccc2nc(/C(C#N)=C\c3ccc(Oc4ccc([N+](=O)[O-])cn4)cc3)[nH]c2c1	inconclusive: 35.5 µM [inhibitor, single point]	
Cc1sc(NC(=O)CN2CCOCC2)nc1-c1ccc2c(c1)CCN2S(=O)(=O)c1ccccc1	active: 7.08 µM	
CCCCNc1c([N+](=O)[O-])c(=O)n(C)c2ccccc12		inactive: -8.29% [at 9.22 µM]
Cc1c(Br)c([N+](=O)[O-])nn1CC(=O)Nc1cccc2nonc12	inactive	
CN(Cc1cccc(C(F)(F)F)c1)Cc1nc(-c2cnccn2)no1	inactive	
COc1ccc(/C=C/C(=O)c2ccc3ccccc3c2O)cc1CN1CCOCC1	inconclusive: 35.5 µM [activator, single point]	
Cc1cccn(Cc2c(F)cccc2Cl)c1=O		inactive: 0.662% [at 9.22 µM]
C[S+](C)CC[C@H](N)C(=O)O	inactive	
COc1ccccc1N1CCN(S(=O)(=O)c2ccc3nc(-c4ccccc4)[nH]c3c2)CC1	inconclusive: 35.5 µM [inhibitor, single point]	
COc1ccc(/C=N/NC(=O)c2ccccc2NC(=O)c2ccco2)c(OC)c1		inactive: -0.411% [at 9.22 µM]
CCc1ccc(-c2cc(C(=O)N3N=C(C(F)F)CC3(O)C(F)F)c3ccccc3n2)cc1 (stereo unspecified)	inconclusive: 14.1 µM [inhibitor, single point]	

Entries of single compounds, looked up by structure.
COC(=O)c1cc(C(=O)OCC(=O)NCc2ccc3c(c2)OCO3)cc([N+](=O)[O-])c1 as listed: Potency: inactive
CCC1=C(OC(=O)N(CC)CC)N2C(=O)OC(=NCC3CC3)[C@]2(Cc2ccccc2)[C@H]2C1=CC[C@H]1C(=O)N(c3ccccc3)C(=O)[C@H]12 as listed: Potency: inconclusive: 2.82 µM [inhibitor, partial curve]
